Assay: Test compound fluorescence in the same range as Bis-ANS fluorescence
Assay type: physicochemical
Conditions: 60 μM test compounds, 390 nm excitation/490 nm emission, after addition of zinc(II) sulfate

SMILES	Fluorescence change with Zn2+ (derivatives with slight fluorescence)	Fluorescence change with Zn2+ (derivatives with significant fluorescence)
NC(=O)C(=Cc1ccc2cc(-c3ccc(N(c4ccccc4)c4ccccc4)cc3)oc2c1)C(N)=O [BC-155, 2-((2-(4-(diphenylamino)phenyl)benzofuran-6-yl)methylene)malonamide]	No change	
CC(C)(C)c1ccc(-c2cc3ccc(C=C(C#N)C(=O)O)cc3o2)cc1 [BC-167, 3-(2-(4-(tert-butyl)phenyl)benzofuran-6-yl)-2-cyanoacrylic acid]		Significant increase
COc1ccc(-c2ccc(-c3cc4ccc(C=C(C#N)C(=O)O)cc4o3)cc2)cc1OC [BC-165, 2-cyano-3-(2-(3′,4′-dimethoxy-[1,1′-biphenyl]-4-yl)benzofuran-6-yl)acrylic acid]		Significant increase
COc1ccc(N(c2ccc(OC)cc2)c2ccc(-c3cc4ccc(C=CC#N)cc4o3)cc2)cc1 [BC-157, 3-(2-(4-(bis(4-methoxyphenyl)amino)phenyl)benzofuran-6-yl)acrylonitrile]		Slight increase
COC(=O)/C=C/c1ccc2cc(-c3ccc(N(c4ccccc4)c4ccccc4)cc3)oc2c1 [BC-170, methyl (E)-3-(2-(4-(diphenylamino)phenyl)benzofuran-6-yl)acrylate]		No change
COc1ccc(-c2cc3ccc(C=C(C#N)C(=O)O)cc3o2)cc1 [BC-168, 2-cyano-3-(2-(4-methoxyphenyl)benzofuran-6-yl)acrylic acid]		Significant increase
O=C(O)/C=C/c1ccc2cc(-c3ccc(N(c4ccccc4)c4ccccc4)cc3)oc2c1 [BC-153, (E)-3-(2-(4-(diphenylamino)phenyl)benzofuran-6-yl)acrylic acid]		Increase
N#CC(=Cc1ccc2cc(-c3ccc(Oc4ccccc4)cc3)oc2c1)C(=O)O [BC-171, 2-cyano-3-(2-(4-phenoxyphenyl)benzofuran-6-yl)acrylic acid]		No change
N#CC(=Cc1ccc(-c2cc3ccc(N(c4ccccc4)c4ccccc4)cc3o2)cc1)C(=O)O [BC-147, 2-cyano-3-(4-(6-(diphenylamino)benzofuran-2-yl)phenyl)acrylic acid]	Quenched	

— patent US10590100B2, “Benzofuran derivatives for the treatment of CNS and other disorders” (WARNER BABCOCK INSTITUTE FOR GREEN CHEMISTRY, priority 2015, dated 2020)
